Measured values taken from patent publication US9834530B2, “3-furyl-2-cyano-2-acrylamide derivative, preparation method therefor, pharmaceutical composition and use thereof” (JENKEM TECHNOLOGY CO., LTD. (BEIJING), priority 2013, dated 2017).
For at least one compound, name, drawing or mass did not settle the structure.

Tested on: AD fruit flies (elav/Y; UAS-Aβ42/+; P35*H29.3)
Test: Pavlovian olfactory learning test in AD fruit flies (anti-senile dementia effect)
Assay type: in vivo
Settings: T test against AD flies without administration: P>0.05, P<0.05 or P<0.01
Procedure: In all tests, w^1118 (isoCJ1) was used as a control gene system, referred to as the “2U”. Progeny fruit flies with disease carrying P35 and H29.3 were obtained by integration of fruit flies carrying elav-GAL4^c155 (referred to as P35) and fruit flies carrying Aβ42 (UAS-Aβ42; referred to as H29.3). The first generation of fruit flies obtained by hybridization was used for behavioral testing. Details as follows:
All the fruit flies were reared in an environment with a temperature of 24° C., relative humidity of 40% RH. On the first day, newborn male 2U*H29.3 fruit flies and male AD fruit flies were picked out and put into glass bottles (there were about 120 fruit flies in each bottle). During administration period, these fruit flies were placed in an environment with a temperature of 28° C., relative humidity of 42% RH. […]
The fruit flies were placed on the automatic training device for training. […] To test the “immediate memory” (also called “learning”), flies after the training were immediately sent to the T-maze choice point, and allowed to choose between two kinds of odor, the learning and memory index PI (Performance index) in every test was calculated according to the number of flies choosing each kind of odor. […]
The test data was analyzed and plotted by employing GraphPad Prism. […]

Cc1nc(Nc2ncc(C(=O)Nc3c(C)cccc3Cl)s2)cc(N2CCN(CCO)CC2)n1 [Dasatinib, reference compound]
anti-senile dementia effect (in words, from Table 1): significant anti-senile dementia effects
